Source: article PMC8480232
These are yes or no findings as the source states them, for the method shown. In cells and extracts the contact can be indirect. A yes stands for co-enrichment or nearness to the bait. Other partners may have been found. Sequences can lack the tags named with a protein.

Chains of the proteins cited; added tags and fusions are not shown. Residues count along the entry.
UniProt P46461: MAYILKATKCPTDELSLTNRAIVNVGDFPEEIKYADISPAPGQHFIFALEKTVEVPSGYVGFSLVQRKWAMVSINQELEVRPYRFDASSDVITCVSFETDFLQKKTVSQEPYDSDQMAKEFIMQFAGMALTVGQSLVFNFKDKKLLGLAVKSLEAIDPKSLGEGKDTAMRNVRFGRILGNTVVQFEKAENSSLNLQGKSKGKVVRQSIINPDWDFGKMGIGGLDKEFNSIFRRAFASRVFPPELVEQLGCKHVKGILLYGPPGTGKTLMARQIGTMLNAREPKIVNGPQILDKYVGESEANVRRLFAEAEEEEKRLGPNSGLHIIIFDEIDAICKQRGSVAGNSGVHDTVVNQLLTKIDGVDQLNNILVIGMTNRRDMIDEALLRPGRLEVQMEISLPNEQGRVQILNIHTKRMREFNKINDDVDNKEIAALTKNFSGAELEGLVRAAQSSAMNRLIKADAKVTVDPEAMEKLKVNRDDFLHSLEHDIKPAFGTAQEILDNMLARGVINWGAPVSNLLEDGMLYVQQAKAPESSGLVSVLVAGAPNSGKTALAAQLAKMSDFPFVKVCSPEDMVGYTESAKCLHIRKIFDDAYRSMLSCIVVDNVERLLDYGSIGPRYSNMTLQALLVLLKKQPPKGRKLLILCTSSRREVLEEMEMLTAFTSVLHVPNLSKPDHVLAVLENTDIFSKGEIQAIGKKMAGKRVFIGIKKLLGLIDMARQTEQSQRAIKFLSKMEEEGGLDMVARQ
UniProt P29844, residues 19-656: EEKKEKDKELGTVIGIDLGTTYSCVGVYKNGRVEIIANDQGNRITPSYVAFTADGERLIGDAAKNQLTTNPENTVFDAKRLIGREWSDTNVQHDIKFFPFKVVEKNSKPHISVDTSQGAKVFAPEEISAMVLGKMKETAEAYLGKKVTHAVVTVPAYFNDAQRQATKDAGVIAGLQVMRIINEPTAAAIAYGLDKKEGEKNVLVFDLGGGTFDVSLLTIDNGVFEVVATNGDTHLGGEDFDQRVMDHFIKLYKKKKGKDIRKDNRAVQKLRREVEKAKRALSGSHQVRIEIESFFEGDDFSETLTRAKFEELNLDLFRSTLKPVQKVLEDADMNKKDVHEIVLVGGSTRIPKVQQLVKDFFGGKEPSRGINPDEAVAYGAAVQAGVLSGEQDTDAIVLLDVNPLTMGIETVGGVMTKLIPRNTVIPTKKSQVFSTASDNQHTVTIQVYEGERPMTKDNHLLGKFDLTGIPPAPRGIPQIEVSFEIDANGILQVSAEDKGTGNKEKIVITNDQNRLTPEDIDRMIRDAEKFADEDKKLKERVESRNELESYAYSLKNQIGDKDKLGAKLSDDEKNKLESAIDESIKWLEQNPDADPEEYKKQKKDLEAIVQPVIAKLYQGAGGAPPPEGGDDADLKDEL
UniProt P11147: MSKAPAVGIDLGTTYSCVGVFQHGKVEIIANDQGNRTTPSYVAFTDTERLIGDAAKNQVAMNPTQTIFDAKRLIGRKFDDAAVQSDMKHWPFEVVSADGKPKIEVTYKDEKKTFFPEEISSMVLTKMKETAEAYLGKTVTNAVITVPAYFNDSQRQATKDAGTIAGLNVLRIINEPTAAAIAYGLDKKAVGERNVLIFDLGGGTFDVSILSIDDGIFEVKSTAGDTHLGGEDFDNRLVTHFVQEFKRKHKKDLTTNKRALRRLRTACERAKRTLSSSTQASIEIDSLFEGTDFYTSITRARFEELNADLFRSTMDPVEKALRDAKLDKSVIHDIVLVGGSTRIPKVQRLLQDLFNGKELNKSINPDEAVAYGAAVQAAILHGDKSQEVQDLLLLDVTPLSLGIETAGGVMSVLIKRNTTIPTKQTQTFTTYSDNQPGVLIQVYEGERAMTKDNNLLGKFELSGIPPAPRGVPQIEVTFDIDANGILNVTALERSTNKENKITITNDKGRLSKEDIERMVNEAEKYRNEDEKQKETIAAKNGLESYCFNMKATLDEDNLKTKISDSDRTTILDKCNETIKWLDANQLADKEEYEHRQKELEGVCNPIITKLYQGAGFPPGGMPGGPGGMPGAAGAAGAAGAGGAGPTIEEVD

The substances below were run against T1, N-terminally EGFP-tagged cysteine string protein (Csp) (Drosophila melanogaster) (UniProt Q03751) (assay: affinity purification with mass spectrometry; EGFP-tagged Csp precipitated with GFP-Trap Dynabeads from lysate of about 4,500 adult fly heads in NETN buffer (50mM Tris pH 7.3, 170mM NaCl, 1mM EDTA, 0.5% NP-40), 1 hour, washed with ice cold NETN; SDS-PAGE, in-gel trypsin digest, LC-MS/MS; compared with EGFP control flies).
T1 sequence: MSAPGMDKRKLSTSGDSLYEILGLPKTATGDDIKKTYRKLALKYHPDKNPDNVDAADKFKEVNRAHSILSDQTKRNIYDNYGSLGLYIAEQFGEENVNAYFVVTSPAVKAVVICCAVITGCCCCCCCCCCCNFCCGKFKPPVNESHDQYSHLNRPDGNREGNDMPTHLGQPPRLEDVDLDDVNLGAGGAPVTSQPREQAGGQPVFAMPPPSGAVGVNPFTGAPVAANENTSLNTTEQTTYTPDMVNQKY

binding, binds:
Comatose (from UniProt P46461 1-745)
Hsc70-3 (from UniProt P29844 19-656)
Hsc70-4 (from UniProt P11147 1-651)
